From PubChem BioAssay AID1347426 (Functional Genomics Laboratory (NCATS/FGL), 2020)
Hit rate of the full screen: of about 31,000 sequences, about 1,400 (4.5%) were called active.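 The calls were made as follows: active = median seed-adjusted z-score above 1 or below -1; inactive = the rest.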 The list shows a part of the results.

Test: Novel Modifiers of Survival Motor Neuron (SMN) Protein: Gene Identification via Genome-wide siRNA Screen;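 also: luminescence tracks full-length SMN protein made from the SMN2 reporter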
Details: HEK293T SMN2-luciferase reporter, siRNA knockdown, 72 h; actives lie on both sides
Outline: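 HEK293T cells stably carrying an SMN2 promoter/splicing cassette–luciferase reporter were reverse-transfected with 1 pmol siRNA per well (druggable-genome library, 3 siRNAs per gene) and grown 72 h at 37 °C. Luminescence, normalized to negative-control siRNA and log10-transformed, was scored as MAD.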
In the case of CUAUUGUCCCUUCUAAUCATT against UHRF2, the median seed-adjusted z-score is reported as inactive: -0.0941.
For AAACAAUCCGAAAAUAUGATT against KLK13, the median seed-adjusted z-score was inactive: 0.452.
For AGGUCAUGCCGUACGCACATT against OLIG2, the median seed-adjusted z-score was inactive: 0.00944.
With GCAUAACGAUUGUGGAAGATT against STXBP1 the median seed-adjusted z-score was inactive: -0.0496.
For CGAGUUGCUUAUGAAAUUATT against FUT8, the median seed-adjusted z-score was inactive: 0.464.
In the case of GUCCCUAUCUAUUCAGUUATT against PHOSPHO1, the median seed-adjusted z-score is reported as inactive: -0.296.
For GGACCCAUGUCUUCGGAAATT against HBEGF, the median seed-adjusted z-score was inactive: -0.903.
In the case of AUCAAGGAGUCGACAUUAATT against HOXB2, the median seed-adjusted z-score is reported as inactive: 0.271.
For CCUUUAAGCUGACCACAGATT against PI4KB, the median seed-adjusted z-score was inactive: 0.105.
For GCUCAUAUCUUACCAAACATT against ZNF560, the median seed-adjusted z-score was inactive: 0.0927.
In the case of GGAGUCCUAUGUGGGCAAATT against FKSG30, the median seed-adjusted z-score is reported as inactive: -0.292.
For GGAUUAUGAAAUCACCAAATT against PCDH18, the median seed-adjusted z-score was inactive: -0.132.
For GACUUUUCUUAGGAUCAGATT against DYNLRB2, the median seed-adjusted z-score was inactive: 0.534.
With GGAACACUAAGGUCAAAUATT against B3GNT4 the median seed-adjusted z-score was inactive: 0.124.
In the case of ACAGCACGGCUGACAGAGATT against ICAM2, the median seed-adjusted z-score is reported as inactive: 0.269.
For GACUAAUGGAGACCCAAGATT against DARS2, the median seed-adjusted z-score was inactive: 0.0673.
For CGCCUAAGCUCGCACUUCATT against ZNF771, the median seed-adjusted z-score was inactive: 0.108.
In the case of GCAGAUAUCUGAUAGCCCUTT against PPA2, the median seed-adjusted z-score is reported as inactive: -0.497.
For GGACUGCUAUGACCGGCUATT against RGS11, the median seed-adjusted z-score was inactive: 0.
In the case of GUGAUGGAAUUGUAAAUGATT against RRM2B, the median seed-adjusted z-score is reported as inactive: -0.128.
With CCUCAGUGAUUCUCGGUAATT against EXOSC2 the median seed-adjusted z-score was inactive: -0.0798.
With CUCCCAGAUCUGUGCAAAATT against ATP5E the median seed-adjusted z-score was inactive: -0.724.
For GGACAUCGCGAGUACCUAUTT against NEDD4L, the median seed-adjusted z-score was inactive: 0.212.
For GAAUCUACAGGAAACGAGATT against SETD8, the median seed-adjusted z-score was active: -1.52.
With GUACUGCCGUGUCUAUAUATT against ADRA1B the median seed-adjusted z-score was inactive: -0.472.
In the case of GGAGUGAAGUUCGAUGAAATT against HSP90B1, the median seed-adjusted z-score is reported as inactive: 0.
For ACAUGUGCUUGGUACAAAATT against PTGIR, the median seed-adjusted z-score was inactive: -0.0806.
For GAUGUGGACUGGAUAGUCATT against NTRK3, the median seed-adjusted z-score was inactive: 0.
With CCAGUUAUCAAGUUCGAUATT against ALDH5A1 the median seed-adjusted z-score was inactive: 0.339.
With GGCUAUAAGGUGAUGUAUATT against SDK2 the median seed-adjusted z-score was inactive: 0.908.
In the case of GUCUCGUGCUGUUCGUCAATT against MYH10, the median seed-adjusted z-score is reported as inactive: 0.0877.
With GCCGGUUAGUAUACAAAGATT against SLC37A2 the median seed-adjusted z-score was inactive: 0.134.
For GAUUUUCAAGGGAAUGACATT against KLRC1, the median seed-adjusted z-score was inactive: 0.171.
For GCUCAGGAAUGUUAGACGATT against ATXN3, the median seed-adjusted z-score was inactive: 0.04.
For GGUAGUCCAUGGACAUUAATT against ANGPTL3, the median seed-adjusted z-score was inactive: 0.117.
For GGGUACAUCUCUUCUGCUATT against KRT36, the median seed-adjusted z-score was inactive: 0.766.
With GACCAAGGCUAAAACGAAUTT against ARHGAP29 the median seed-adjusted z-score was inactive: -0.0483.
For GGCUCCAUCGUGUCGAAAATT against KIF18A, the median seed-adjusted z-score was inactive: -0.159.
With GGAUAUAGACGAUGACCUATT against SCNN1G the median seed-adjusted z-score was inactive: -0.616.
With GCGGUGUUCUCCAUCCUGATT against MRGPRF the median seed-adjusted z-score was inactive: -0.654.
With GGAAGUACAUCAUGUCAGATT against TSHZ3 the median seed-adjusted z-score was inactive: 0.301.
In the case of CUUGUCAAGUACGACCUUATT against NINJ1, the median seed-adjusted z-score is reported as inactive: -0.061.
With GCAAUAUCCAAUUGUUAUATT against L2HGDH the median seed-adjusted z-score was inactive: -0.346.
For GCUAUGACUUCACACCUAUTT against HBP1, the median seed-adjusted z-score was inactive: -0.117.
With GGGAUGGACGAAUUACGGUTT against CABP4 the median seed-adjusted z-score was inactive: 0.146.
With CGGAGUUCAUAAUGAAUAATT against BCL2A1 the median seed-adjusted z-score was inactive: 0.0557.
For GAAUGACCAAGAAUGUAGATT against DUOX2, the median seed-adjusted z-score was inactive: 0.525.
For UCAUGAGCAUCGACCGAUATT against SSTR2, the median seed-adjusted z-score was inactive: -0.162.
With CAGAGGCCGUUGGUACUUATT against STAT4 the median seed-adjusted z-score was inactive: 0.734.
In the case of GCAAUACGGAAGUAAUGUUTT against DDX5, the median seed-adjusted z-score is reported as inactive: 0.891.
For CGCUGAUACUAACAAUUGATT against AOX1, the median seed-adjusted z-score was inactive: -0.0717.
With CUGGCUACGUGAAUGUGCATT against ZDHHC12 the median seed-adjusted z-score was inactive: -0.0312.
In the case of CCAUUGUCAUUUCAACAGATT against IMPG1, the median seed-adjusted z-score is reported as inactive: -0.252.
With CGACGAUUGAAAGUGUUGATT against SERPINB12 the median seed-adjusted z-score was inactive: -0.525.
In the case of GAAGAACAACUAUAAGCAUTT against POU1F1, the median seed-adjusted z-score is reported as inactive: 0.5.
With CCAAUAUGCUAAAUAGGUATT against GRIN2B the median seed-adjusted z-score was inactive: 0.0402.
For CCAGGAGCGAUAACAGUAATT against DAZAP1, the median seed-adjusted z-score was inactive: 0.
With GGAAUACCAACUUCAGAAATT against GNG12 the median seed-adjusted z-score was inactive: 0.331.
For CUGUUAAGAUUGUGGAAGATT against AKAP14, the median seed-adjusted z-score was inactive: 0.136.
For GCUAAUGAAGAAUACCAUUTT against MTHFD2, the median seed-adjusted z-score was inactive: -0.146.
In the case of GGGCCGAUGUUCUCAGGAATT against TK1, the median seed-adjusted z-score is reported as inactive: -0.0562.
With GGGAUAUAUUGACUUUGAATT against PCDHA4 the median seed-adjusted z-score was inactive: -0.268.
With AAUCAUCUGUUUUUAAACATT against RABL2B the median seed-adjusted z-score was inactive: 0.454.
In the case of GGGACGAUAUUUUAUGCAUTT against AHRR, the median seed-adjusted z-score is reported as inactive: -0.636.
With UAUUGAUUCAGCAUACUUATT against AKR1CL1 the median seed-adjusted z-score was inactive: 0.488.
With CUAGGUAUAUGGACUUAAATT against MAPK6 the median seed-adjusted z-score was inactive: -0.156.
For GGAUGAACAUUUUAGGAUUTT against SLC1A4, the median seed-adjusted z-score was inactive: 0.209.
In the case of CACUGUAACUUGCAGGUUUTT against RDH10, the median seed-adjusted z-score is reported as inactive: -0.28.
For GGAUUCAUGUUGUCUACAATT against ADAMTS3, the median seed-adjusted z-score was inactive: 0.
For GAACGAAAGAUCAUAGAAUTT against ITSN1, the median seed-adjusted z-score was inactive: 0.00218.
In the case of CAAGAUGUAUGGUGAGUAUTT against FGD1, the median seed-adjusted z-score is reported as inactive: 0.414.
With GAUUGUCAAUGAACAGUUUTT against ACADVL the median seed-adjusted z-score was inactive: -0.476.
With GCAAGCUGUAGAACACGUATT against ADRBK2 the median seed-adjusted z-score was inactive: 0.148.
For CAUAUGAUCCAGACAAGAATT against ZNF425, the median seed-adjusted z-score was inactive: 0.0841.
For CUAGAGCUCUACUUACAGATT against GSTO1, the median seed-adjusted z-score was inactive: 0.188.
In the case of CAUCUUCUUUAUUCUAGUUTT against SLC6A9, the median seed-adjusted z-score is reported as inactive: 0.241.
In the case of GCAUCAGGUGAACAUCAAATT against TRIM16, the median seed-adjusted z-score is reported as inactive: 0.345.
In the case of GCCUAUUCAGAACACCAAUTT against TBP, the median seed-adjusted z-score is reported as active: -1.25.
For CCAACAUUGUCGUCCGCGATT against CLDN5, the median seed-adjusted z-score was inactive: 0.
In the case of GGCUGUACAUCGAUAGCUATT against PGM1, the median seed-adjusted z-score is reported as inactive: 0.136.
In the case of CGAGUCCUGUGGUUAUGAATT against ANKS1A, the median seed-adjusted z-score is reported as inactive: -0.0165.
For GUUGCAAACUUAUCGAGGATT against CCT2, the median seed-adjusted z-score was inactive: -0.0508.
With GAGGAAUUAUGACUACUAUTT against BPNT1 the median seed-adjusted z-score was inactive: 0.0844.
With UGCGCAACCUUAAGAACAATT against PRAF2 the median seed-adjusted z-score was inactive: -0.326.
In the case of GCUUGACUGUGAGUGUACATT against RAD54B, the median seed-adjusted z-score is reported as inactive: -0.257.
For GGUGUCAACUCGUUCCAGATT against DPYSL5, the median seed-adjusted z-score was inactive: 0.0624.
With GCCUGGAGAGUUCACUGGATT against APBB3 the median seed-adjusted z-score was inactive: -0.299.
With ACACUCUCGCAGACCCAUUTT against HIF3A the median seed-adjusted z-score was inactive: -0.0855.
For CUUUAGCCGCAAACCCAUATT against ZNF772, the median seed-adjusted z-score was inactive: 0.817.
For ACCAGCGCAUGGACAGUUATT against SOX2, the median seed-adjusted z-score was inactive: 0.0559.
With CGGCCUUCAUCGCAGUACATT against SLC7A5 the median seed-adjusted z-score was inactive: 0.00397.
For GAAAGAUUUCUGAAUCGUATT against B3GALTL, the median seed-adjusted z-score was inactive: -0.259.
In the case of GGCUACUAGAUGCUCCUGATT against ZMAT5, the median seed-adjusted z-score is reported as inactive: 0.292.
In the case of GAAUCGAUUUUGAUAUCGATT against ATMIN, the median seed-adjusted z-score is reported as inactive: -0.55.
For AGUCAAAUGUAAUCCGAAATT against ZBTB48, the median seed-adjusted z-score was inactive: 0.0461.
For GUAUGUUGAAGCAAUUAAATT against CDKL4, the median seed-adjusted z-score was inactive: 0.13.
With CCUUAACACCUGCAACCGATT against GRHPR the median seed-adjusted z-score was inactive: 0.475.
For CAAUAGUACCUCACCGGAATT against SLC28A2, the median seed-adjusted z-score was inactive: -0.076.
In the case of GAACUCCAGAGAUCAAUAATT against IL7R, the median seed-adjusted z-score is reported as inactive: 0.
In the case of UCUACAACAUGGUAGUGCATT against NMUR1, the median seed-adjusted z-score is reported as inactive: -0.265.
With GAGCUUCCGUAGUAGAGCATT against ZNF225 the median seed-adjusted z-score was inactive: 0.0761.
For CGCUGCUGGUCAUCAAGAUTT against PTGES, the median seed-adjusted z-score was inactive: -0.0851.
For GAAUGUACUAAGUAUGGAATT against ZNF630, the median seed-adjusted z-score was inactive: -0.533.
In the case of GGACUGCCCUCAUAUGAAATT against ELMO1, the median seed-adjusted z-score is reported as inactive: -0.00404.
For CAUCCACACUUCUCCAGAATT against HK1, the median seed-adjusted z-score was inactive: -0.129.
For CCAACUCCAUGUCCGAUGATT against ITGB4, the median seed-adjusted z-score was inactive: -0.226.
In the case of GCUGGACCCUUAUUACCGATT against MTMR3, the median seed-adjusted z-score is reported as inactive: 0.281.
